This is one part of the list.
Compound: COc1ccc(Cn2ccc3ccc(C(=O)NO)cc32)cc1
Assay: dose-dependent thermal stabilisation call (2D-TPP, DLPTP, 10% FDR) (binary (1 = stabilised)); higher = stabilised by the compound
Details: system: HL-60 intact cells; concentration range 0.04-10 µM

Chains of the proteins cited; added tags and fusions are not shown. Lines headed by an entry give the natural chain unless they say otherwise; changes in a name come on top.
UniProt Q9NSV4, whole entry: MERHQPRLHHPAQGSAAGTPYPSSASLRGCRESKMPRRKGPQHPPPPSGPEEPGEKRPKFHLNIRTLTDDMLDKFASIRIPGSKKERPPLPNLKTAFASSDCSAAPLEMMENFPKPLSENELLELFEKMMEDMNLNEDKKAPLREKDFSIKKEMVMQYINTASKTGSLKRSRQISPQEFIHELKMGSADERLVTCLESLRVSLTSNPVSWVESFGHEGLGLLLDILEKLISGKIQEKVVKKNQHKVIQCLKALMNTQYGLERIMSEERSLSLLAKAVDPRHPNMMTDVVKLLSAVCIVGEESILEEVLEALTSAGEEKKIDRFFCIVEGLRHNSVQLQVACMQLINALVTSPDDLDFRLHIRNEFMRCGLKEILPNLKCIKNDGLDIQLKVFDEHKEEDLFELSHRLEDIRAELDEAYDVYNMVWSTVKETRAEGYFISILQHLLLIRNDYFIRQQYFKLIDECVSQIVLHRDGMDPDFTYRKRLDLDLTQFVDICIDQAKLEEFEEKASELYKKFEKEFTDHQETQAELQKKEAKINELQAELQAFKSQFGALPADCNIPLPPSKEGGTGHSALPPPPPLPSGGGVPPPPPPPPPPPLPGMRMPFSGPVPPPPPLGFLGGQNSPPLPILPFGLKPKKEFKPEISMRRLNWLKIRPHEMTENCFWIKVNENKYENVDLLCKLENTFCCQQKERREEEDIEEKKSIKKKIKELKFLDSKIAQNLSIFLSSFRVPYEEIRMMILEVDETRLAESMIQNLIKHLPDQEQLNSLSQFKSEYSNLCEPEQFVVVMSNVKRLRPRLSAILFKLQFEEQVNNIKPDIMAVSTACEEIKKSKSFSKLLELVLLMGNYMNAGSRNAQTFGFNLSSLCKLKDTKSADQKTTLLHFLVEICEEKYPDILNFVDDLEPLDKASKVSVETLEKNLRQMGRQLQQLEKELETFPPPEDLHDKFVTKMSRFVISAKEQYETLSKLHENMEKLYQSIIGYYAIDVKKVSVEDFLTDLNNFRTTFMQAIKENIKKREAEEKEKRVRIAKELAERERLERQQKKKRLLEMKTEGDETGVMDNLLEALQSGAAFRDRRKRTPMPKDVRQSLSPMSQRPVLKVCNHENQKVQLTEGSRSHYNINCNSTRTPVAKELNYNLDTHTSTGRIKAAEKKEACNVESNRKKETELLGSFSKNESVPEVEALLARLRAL
UniProt Q96RQ1: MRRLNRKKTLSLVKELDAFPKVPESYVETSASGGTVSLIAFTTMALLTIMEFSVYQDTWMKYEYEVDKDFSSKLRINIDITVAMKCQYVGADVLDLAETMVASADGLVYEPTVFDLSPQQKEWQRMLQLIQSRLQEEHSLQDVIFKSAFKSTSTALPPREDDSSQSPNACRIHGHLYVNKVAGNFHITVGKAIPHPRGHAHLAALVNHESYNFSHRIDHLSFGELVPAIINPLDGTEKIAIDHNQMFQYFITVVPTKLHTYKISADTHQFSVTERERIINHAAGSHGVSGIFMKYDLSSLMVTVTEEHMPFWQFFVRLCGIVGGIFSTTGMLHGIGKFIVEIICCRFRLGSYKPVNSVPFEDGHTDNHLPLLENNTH
UniProt Q99615: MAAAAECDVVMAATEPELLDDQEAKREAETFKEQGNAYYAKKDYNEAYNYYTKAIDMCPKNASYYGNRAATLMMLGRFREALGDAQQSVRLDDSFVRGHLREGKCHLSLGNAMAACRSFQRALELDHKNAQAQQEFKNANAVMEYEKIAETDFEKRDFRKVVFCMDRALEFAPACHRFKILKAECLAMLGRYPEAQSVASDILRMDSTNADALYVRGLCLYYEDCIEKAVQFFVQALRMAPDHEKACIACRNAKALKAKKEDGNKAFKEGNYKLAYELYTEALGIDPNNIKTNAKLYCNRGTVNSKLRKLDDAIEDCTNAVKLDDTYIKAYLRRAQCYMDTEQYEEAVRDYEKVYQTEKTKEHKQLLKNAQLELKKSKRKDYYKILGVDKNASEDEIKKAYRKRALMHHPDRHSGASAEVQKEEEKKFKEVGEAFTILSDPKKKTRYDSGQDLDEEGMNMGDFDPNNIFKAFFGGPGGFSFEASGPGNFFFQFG
UniProt Q96C19: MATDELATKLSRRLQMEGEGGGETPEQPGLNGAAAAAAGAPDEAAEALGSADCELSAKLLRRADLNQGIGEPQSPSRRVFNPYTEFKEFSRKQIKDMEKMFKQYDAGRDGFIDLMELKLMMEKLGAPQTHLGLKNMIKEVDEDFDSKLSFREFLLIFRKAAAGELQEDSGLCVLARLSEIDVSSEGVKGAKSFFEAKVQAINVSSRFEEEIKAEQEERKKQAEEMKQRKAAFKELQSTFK
UniProt Q14919: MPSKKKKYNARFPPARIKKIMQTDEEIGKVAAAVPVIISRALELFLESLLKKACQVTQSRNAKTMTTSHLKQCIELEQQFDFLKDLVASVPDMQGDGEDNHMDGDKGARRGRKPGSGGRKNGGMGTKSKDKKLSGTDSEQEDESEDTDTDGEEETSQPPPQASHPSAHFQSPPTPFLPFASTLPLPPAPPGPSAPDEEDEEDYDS
UniProt O75190: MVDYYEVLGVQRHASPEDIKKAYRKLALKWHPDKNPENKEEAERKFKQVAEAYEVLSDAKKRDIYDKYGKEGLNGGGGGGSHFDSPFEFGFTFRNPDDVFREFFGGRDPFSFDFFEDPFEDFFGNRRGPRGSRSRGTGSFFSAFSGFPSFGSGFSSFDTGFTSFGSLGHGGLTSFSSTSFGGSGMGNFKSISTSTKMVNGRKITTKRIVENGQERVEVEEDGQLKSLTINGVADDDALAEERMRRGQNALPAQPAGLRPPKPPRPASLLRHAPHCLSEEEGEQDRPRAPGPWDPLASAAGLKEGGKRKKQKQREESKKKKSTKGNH
UniProt P63241: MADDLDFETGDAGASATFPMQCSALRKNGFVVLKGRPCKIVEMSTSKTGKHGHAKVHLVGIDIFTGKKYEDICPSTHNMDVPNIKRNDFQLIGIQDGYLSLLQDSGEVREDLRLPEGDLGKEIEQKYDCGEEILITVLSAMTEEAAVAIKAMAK
UniProt O75821, whole entry: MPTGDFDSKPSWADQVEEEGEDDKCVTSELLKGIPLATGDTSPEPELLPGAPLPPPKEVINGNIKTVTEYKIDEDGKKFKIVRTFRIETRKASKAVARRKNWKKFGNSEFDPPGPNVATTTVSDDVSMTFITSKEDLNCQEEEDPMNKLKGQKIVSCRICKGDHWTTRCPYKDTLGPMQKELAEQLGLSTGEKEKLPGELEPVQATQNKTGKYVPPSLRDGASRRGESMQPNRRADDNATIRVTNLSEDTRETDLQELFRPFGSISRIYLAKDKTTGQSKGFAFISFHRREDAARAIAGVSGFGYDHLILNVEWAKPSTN
UniProt Q05193: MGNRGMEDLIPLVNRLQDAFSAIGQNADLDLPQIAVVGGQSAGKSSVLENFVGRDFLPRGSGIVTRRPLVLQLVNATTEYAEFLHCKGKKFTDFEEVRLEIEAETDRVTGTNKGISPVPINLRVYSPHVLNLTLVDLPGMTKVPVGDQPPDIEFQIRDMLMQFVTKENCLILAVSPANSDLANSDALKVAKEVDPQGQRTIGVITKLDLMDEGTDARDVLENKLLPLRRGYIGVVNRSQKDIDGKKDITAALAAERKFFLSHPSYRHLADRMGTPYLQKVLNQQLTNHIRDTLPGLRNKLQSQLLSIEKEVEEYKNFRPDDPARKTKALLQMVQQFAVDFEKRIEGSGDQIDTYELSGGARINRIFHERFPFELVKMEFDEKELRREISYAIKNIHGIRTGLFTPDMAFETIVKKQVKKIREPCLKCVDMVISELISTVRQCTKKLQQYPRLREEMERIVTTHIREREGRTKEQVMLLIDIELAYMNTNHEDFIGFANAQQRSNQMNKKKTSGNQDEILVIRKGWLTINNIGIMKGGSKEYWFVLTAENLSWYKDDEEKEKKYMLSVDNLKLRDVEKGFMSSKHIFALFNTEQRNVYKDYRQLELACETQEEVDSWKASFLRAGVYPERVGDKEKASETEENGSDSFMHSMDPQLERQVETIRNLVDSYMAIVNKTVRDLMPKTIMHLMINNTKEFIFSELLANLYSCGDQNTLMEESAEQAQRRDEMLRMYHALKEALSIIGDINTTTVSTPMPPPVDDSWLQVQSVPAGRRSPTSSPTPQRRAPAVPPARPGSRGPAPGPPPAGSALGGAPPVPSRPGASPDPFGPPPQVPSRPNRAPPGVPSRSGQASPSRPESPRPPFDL
UniProt P18146, whole entry, looked up: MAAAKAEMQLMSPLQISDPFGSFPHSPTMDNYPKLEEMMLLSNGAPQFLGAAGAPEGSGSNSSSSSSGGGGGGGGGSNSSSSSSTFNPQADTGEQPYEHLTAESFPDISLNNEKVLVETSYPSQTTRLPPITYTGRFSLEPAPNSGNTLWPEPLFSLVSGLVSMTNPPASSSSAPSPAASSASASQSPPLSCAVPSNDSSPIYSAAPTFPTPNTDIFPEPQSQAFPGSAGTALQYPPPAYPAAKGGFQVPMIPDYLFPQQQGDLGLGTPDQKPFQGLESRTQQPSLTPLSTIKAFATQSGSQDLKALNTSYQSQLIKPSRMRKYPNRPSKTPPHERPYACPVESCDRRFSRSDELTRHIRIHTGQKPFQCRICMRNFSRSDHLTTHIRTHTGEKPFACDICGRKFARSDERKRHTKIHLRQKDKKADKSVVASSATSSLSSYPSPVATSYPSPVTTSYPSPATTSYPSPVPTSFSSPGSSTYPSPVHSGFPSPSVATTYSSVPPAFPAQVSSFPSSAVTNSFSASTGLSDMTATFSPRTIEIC
UniProt Q92608: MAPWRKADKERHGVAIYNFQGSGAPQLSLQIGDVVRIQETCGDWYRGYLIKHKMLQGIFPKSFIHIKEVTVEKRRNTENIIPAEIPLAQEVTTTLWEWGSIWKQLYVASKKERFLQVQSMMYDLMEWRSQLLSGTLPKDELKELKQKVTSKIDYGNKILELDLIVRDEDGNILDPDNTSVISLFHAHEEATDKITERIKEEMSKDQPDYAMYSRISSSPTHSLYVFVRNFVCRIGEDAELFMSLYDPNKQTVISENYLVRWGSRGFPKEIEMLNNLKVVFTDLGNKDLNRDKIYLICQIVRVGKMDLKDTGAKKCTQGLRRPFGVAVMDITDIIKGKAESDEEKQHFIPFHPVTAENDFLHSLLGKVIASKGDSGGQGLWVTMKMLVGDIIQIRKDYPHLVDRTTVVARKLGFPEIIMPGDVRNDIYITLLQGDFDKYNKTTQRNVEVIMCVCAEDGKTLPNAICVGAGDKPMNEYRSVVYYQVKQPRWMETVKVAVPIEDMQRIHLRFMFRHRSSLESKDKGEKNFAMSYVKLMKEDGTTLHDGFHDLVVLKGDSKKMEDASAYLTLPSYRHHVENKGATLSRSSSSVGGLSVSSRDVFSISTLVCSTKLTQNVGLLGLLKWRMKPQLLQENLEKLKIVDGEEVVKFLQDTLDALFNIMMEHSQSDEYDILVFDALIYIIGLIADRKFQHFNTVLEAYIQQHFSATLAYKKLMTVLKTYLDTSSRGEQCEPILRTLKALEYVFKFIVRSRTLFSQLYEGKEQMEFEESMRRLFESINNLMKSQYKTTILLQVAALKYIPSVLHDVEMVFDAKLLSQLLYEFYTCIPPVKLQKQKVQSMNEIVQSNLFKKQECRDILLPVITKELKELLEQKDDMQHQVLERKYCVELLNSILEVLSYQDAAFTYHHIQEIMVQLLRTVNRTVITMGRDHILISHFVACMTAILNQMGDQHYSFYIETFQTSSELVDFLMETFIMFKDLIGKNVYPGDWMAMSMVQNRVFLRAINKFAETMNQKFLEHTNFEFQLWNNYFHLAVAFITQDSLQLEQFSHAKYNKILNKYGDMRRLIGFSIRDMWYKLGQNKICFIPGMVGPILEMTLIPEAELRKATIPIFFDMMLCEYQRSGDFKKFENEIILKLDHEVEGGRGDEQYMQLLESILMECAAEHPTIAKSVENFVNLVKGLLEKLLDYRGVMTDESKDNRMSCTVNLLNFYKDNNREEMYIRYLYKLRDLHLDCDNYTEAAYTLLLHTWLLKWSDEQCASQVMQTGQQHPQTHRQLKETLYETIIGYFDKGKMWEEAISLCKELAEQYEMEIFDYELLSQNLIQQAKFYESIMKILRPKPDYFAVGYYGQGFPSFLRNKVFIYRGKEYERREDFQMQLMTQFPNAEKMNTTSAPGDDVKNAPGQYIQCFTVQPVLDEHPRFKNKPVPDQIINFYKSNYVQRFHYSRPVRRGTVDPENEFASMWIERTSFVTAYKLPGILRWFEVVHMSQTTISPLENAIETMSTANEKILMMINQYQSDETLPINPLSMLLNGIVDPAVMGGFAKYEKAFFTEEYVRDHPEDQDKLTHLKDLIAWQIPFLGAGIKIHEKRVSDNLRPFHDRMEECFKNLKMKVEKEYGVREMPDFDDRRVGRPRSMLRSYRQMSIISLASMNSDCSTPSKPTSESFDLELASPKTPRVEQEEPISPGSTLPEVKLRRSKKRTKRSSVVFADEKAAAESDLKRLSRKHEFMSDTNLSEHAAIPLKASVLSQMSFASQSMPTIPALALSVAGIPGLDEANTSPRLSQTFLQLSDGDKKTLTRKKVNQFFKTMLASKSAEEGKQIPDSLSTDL

| Target | dose-dependent thermal stabilisation call |
| --- | --- |
| DIAPH3 (UniProt Q9NSV4) | inactive: 0 |
| ERGIC2 (UniProt Q96RQ1) | inactive: 0 |
| DNAJC7 (UniProt Q99615) | inactive: 0 |
| EFHD2 (UniProt Q96C19) | inactive: 0 |
| DRAP1 (UniProt Q14919) | inactive: 0 |
| DOHH (UniProt Q9BU89) | inactive: 0 |
| ENTPD4 (UniProt Q9Y227) | inactive: 0 |
| EAF1 (UniProt Q96JC9) | inactive: 0 |
| ERBB2IP (UniProt Q96RT1) | inactive: 0 |
| EFCAB4B (UniProt Q9BSW2) | inactive: 0 |
| DNAJB6 (UniProt O75190) | inactive: 0 |
| EIF2S3 (UniProt P41091) | inactive: 0 |
| EMILIN2 (UniProt Q9BXX0) | inactive: 0 |
| DLG1 (UniProt Q12959) | inactive: 0 |
| EIF5A (UniProt P63241) | inactive: 0 |
| DNAJC10 (UniProt Q8IXB1) | inactive: 0 |
| EIF3B (UniProt P55884) | inactive: 0 |
| DPM3 (UniProt Q9P2X0) | inactive: 0 |
| EPS15 (UniProt P42566) | inactive: 0 |

| Target | dose-dependent thermal stabilisation call |
| --- | --- |
| ESF1 (UniProt Q9H501) | inactive: 0 |
| ERCC3 (UniProt P19447) | inactive: 0 |
| EIF3G (UniProt O75821) | inactive: 0 |
| E2F6 (UniProt O75461) | inactive: 0 |
| EIF3I (UniProt Q13347) | inactive: 0 |
| DPY19L3 (UniProt Q6ZPD9) | inactive: 0 |
| DNAJC8 (UniProt O75937) | inactive: 0 |
| DUSP3 (UniProt P51452) | inactive: 0 |
| DNM1 (UniProt Q05193) | inactive: 0 |
| EGR1 (UniProt P18146) | inactive: 0 |
| EIF4G1 (UniProt Q04637) | inactive: 0 |
| DNAJA3 (UniProt Q96EY1) | inactive: 0 |
| EIF3L (UniProt Q9Y262) | inactive: 0 |
| EPRS (UniProt P07814) | inactive: 0 |
| DOCK2 (UniProt Q92608) | inactive: 0 |
| DNAJC11 (UniProt Q9NVH1) | inactive: 0 |
| DNAJB11 (UniProt Q9UBS4) | inactive: 0 |
| DYNLRB1 (UniProt Q9NP97) | inactive: 0 |
| EFHA1 (UniProt Q8IYU8) | inactive: 0 |

Two entries picked at random from the list so far:

| Target | dose-dependent thermal stabilisation call |
| --- | --- |
| DPY19L3 (UniProt Q6ZPD9) | inactive: 0 |
| DNAJA3 (UniProt Q96EY1) | inactive: 0 |

Reference: the supplement of paper PMC7666118
